Laboratory results published in patent US20110014214A1.
These are yes or no findings as the source states them, for the method shown. Binding seen in cells or lysates may run through a third protein. Some binding calls cover weakened binding; strength is not graded here. Sequences can lack the tags named with a protein.

Protein sequences, listed by entry. Tags and fused reporters are not part of them. Lines headed by an entry give the natural chain unless they say otherwise; changes in a name come on top. Residues count along the entry.
UniProt P05554: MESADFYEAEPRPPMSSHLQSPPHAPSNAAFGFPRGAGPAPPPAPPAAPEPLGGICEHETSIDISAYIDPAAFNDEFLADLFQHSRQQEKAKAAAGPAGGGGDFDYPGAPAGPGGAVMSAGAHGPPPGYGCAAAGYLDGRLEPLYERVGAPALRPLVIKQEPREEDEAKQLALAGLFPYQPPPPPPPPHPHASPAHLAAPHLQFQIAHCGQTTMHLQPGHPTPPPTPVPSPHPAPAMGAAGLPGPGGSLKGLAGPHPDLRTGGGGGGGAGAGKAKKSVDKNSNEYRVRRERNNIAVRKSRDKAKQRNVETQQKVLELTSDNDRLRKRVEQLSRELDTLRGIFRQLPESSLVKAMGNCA
HA-C/EBPαp30: residues 118-358 of P05554

Legend:
[1] = target: HA-tagged (C-terminus) C/EBPαp42 (rat) (UniProt P05554); assay: co-immunoprecipitation (Myc IP, HA western) from 293T cells pretreated with MG132 (lane 4)
HA-C/EBPαp30 (rat) = HA-C/EBPαp30 (rat) (UniProt P05554); assay: co-immunoprecipitation (Myc IP, HA western) from 293T cells; seen without MG132 (lane 5) and with MG132 (lane 4)

B1: myc-tagged (C-terminus) Trib2 (murine Trib2 in pcDNA3.1/myc-HIS) (protein, not shown: small tags and cut ends)
chain: MNIHRSTPITIARYGRSRNKTQDFEELSSIRSAEPSQSFSPNLGSPSPPETPNLSHCVSCIGKYLLLEPLEGDHVFRAVHLHSGEELVCKVFEISCYQESLAPCFCLSAHSNINQITEILLGETKAYVFFERSYGDMHSFVRTCKKLREEEAARLFYQIASAVAHCHDGGLVLRDLKLRKFIFKDEERTRVKLESLEDAYILRGDDDSLSDKHGCPAYVSPEILNTSGSYSGKAADVWSLGVMLYTMLVGRYPFHDIEPSSLFSKIRRGQFNIPETLSPKAKCLIRSILRREPSERLTSQEILDHPWFSTDFSVSNSGFGAKEACDQLVPDVNMEENLDPFFN
Q: Which binding [1] does the source give for B1 here?
A: binds

Q: What about the binding (HA-C/EBPαp30 (rat)) of the same binder?
A: binds
